PubChem BioAssay AID743121, NCATS | 2013
The deposit covers about 26,000 reagents; shown is a part drawn at random. 167 of them (0.63%) count as active. 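Calls are per gene from RSA p-values that are not deposited; an individual active-marked siRNA can sensitise only weakly.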 The numbers tell different reagents against one gene apart. Not all columns of the deposit are shown.

- Aim: 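Knock-downs that sensitise breast cancer cells to camptothecin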 (primary screen)
- System: MDA-MB-231 cells, a human breast cancer line
- Knock-down reagent: single siRNA against human genes, 20 nM siRNA (0.8 pmol per well)
- Time to read-out: 120 h (drug added 48 h after transfection, read 72 h later)
- Treatment: camptothecin 20 nM (about EC30) for 72 h; vehicle 0.1% DMSO in parallel plates
- Read-out: 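CellTiter-Glo ATP signal, scaled to control siRNA as percent viability; sensitisation given as log2 of untreated divided by camptothecin-treated viability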
- Scale: log2 vehicle/camptothecin viability: higher = stronger sensitisation to camptothecin; viability with camptothecin: higher = more viable cells
- Call rule: 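Each gene scored by redundant siRNA activity (RSA) over its individual siRNA ratios; a gene is called active at p < 0.001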

no.	Target gene	reagent no.	log2 vehicle/camptothecin viability	viability with camptothecin (% of control)	Outcome
1	FLRT1	1	-0.356	135	inactive
2	FLRT1	2	-0.246	56.9	inactive
3	FLRT1	3	-0.124	65.2	inactive
4	AKAP4	1	-0.174	118	inactive
5	AKAP4	2	-0.243	110	inactive
6	AKAP4	3	-0.0135	53.8	inactive
7	AKAP4	4	-0.326	93.3	inactive
8	CSNK2A1	1	-0.378	66.5	inactive
9	CSNK2A1	2	0.121	54.8	inactive
10	CSNK2A1	3	-0.0365	102	inactive
11	CSNK2A1	4	-0.362	61.4	inactive
12	HEPH	1	0.305	60.1	inactive
13	HEPH	2	-0.128	97.6	inactive
14	HEPH	3	-0.174	67.3	inactive
15	HEPH	4	-0.297	90.6	inactive
16	ITGAD	1	0.0571	101	inactive
17	ITGAD	2	-0.201	69.5	inactive
18	ITGAD	3	0.529	66.9	inactive
19	ITGAD	4	-0.207	74.7	inactive
20	THAP12	1	-0.366	69.1	inactive
21	THAP12	2	-0.379	114	inactive
22	THAP12	3	-0.125	65	inactive
23	THAP12	4	-0.469	72.1	inactive
24	LIPJ	1	-0.0978	93	inactive
25	LIPJ	2	0.0938	80.5	inactive
26	LIPJ	3	-0.171	116	inactive
27	LIPJ	4	-0.486	40.3	inactive
28	KCNE4	1	0.422	28.3	inactive
29	KCNE4	2	-0.182	76.9	inactive
30	KCNE4	3	-0.189	62.8	inactive
31	IL4	1	-0.156	114	inactive
32	IL4	2	-0.215	51.9	inactive
33	IL4	3	-0.218	120	inactive
34	IL4	4	-0.291	68	inactive
35	SLC7A14	1	-0.243	39.3	inactive
36	SLC7A14	2	-0.361	62.8	inactive
37	SLC7A14	3	-0.337	97.4	inactive
38	SLC7A14	4	-0.392	74.1	inactive
39	OPRD1	1	-0.165	108	inactive
40	OPRD1	2	0.609	4.51	inactive
41	OPRD1	3	-0.439	89.2	inactive
42	OPRD1	4	0.022	56.9	inactive
43	CGB3	1	-0.226	81.5	inactive
44	CGB3	2	-0.0377	55.1	inactive
45	CGB3	3	0.0312	58	inactive
46	CGB3	4	-0.201	94.7	inactive
47	CGB3	5	-0.321	71.6	inactive
48	P4HA1	1	0.231	52.9	inactive
49	P4HA1	2	-0.342	94.6	inactive
50	P4HA1	3	-0.485	82.5	inactive
51	P4HA1	4	-0.246	105	inactive
52	SPC25	1	-0.875	107	inactive
53	SPC25	2	-0.549	84.2	inactive
54	SPC25	3	0.0581	26.6	inactive
55	SPC25	4	0.137	82.6	inactive
56	DAD1	1	0.324	80.5	inactive
57	DAD1	2	0.528	47.1	inactive
58	DAD1	3	-0.307	61.7	inactive
59	NUAK2	1	-0.426	88.5	inactive
60	NUAK2	2	-0.104	67.6	inactive
61	NUAK2	3	0.0436	88.4	inactive
62	NUAK2	4	-0.433	78.3	inactive
63	SGK1	1	0.0228	87.6	inactive
64	SGK1	2	-0.257	127	inactive
65	SGK1	3	0.207	86.4	inactive
66	SGK1	4	-0.271	77.2	inactive
67	ASB9	1	-0.323	92.6	inactive
68	ASB9	2	-0.315	97.8	inactive
69	ASB9	3	-0.251	75.1	inactive
70	ASB9	4	-0.501	60.9	inactive

11 entries from above, reformatted.
Target gene | reagent no. | log2 vehicle/camptothecin viability | viability with camptothecin (% of control) | Outcome
SLC7A14 | 2 | -0.361 | 62.8 | inactive
SLC7A14 | 3 | -0.337 | 97.4 | inactive
SLC7A14 | 4 | -0.392 | 74.1 | inactive
OPRD1 | 1 | -0.165 | 108 | inactive
OPRD1 | 2 | 0.609 | 4.51 | inactive
OPRD1 | 3 | -0.439 | 89.2 | inactive
OPRD1 | 4 | 0.022 | 56.9 | inactive
CGB3 | 1 | -0.226 | 81.5 | inactive
CGB3 | 2 | -0.0377 | 55.1 | inactive
CGB3 | 3 | 0.0312 | 58 | inactive
CGB3 | 4 | -0.201 | 94.7 | inactive
